Earlier results, collected in patent publication US9011879B2 (priority 2009, dated 2015).
At least one structure is not confirmed: it was looked up by name or label, or the drawing left a doubt.

System: norepinephrine content of the tissue
Details: hamster, in vivo; cited from earlier work

N=C(N)NCCN1CCCCCCC1 [guanethidine, Guanidine, [2-(hexahydro-1(2H)-azocinyl)ethyl]-]
amount delivered giving functional sympathectomy: at least 200 micrograms
norepinephrine content of the tissue versus control (placebo) side: substantial reduction
